Reference: US20170196888A1, “COMPOSITIONS AND METHODS FOR TREATING CANCER” (Yeda Research and Development Co. Ltd., priority 2014, published 2017)
For some of these results: At least one compound was matched to its structure with a doubt left. Some of these results come from one statement about several compounds together.

Tests used:
Format in all cases: cell-based, human
MCF10A cells [1] = assay: Transwell migration assay of EGF-stimulated MCF10A cells; details: MCF10A in transwell, EGF 10 ng/ml; DEX 100 nM, E2 30 nM, PRG 30 nM, MPA 100 nM; 20 hours
Procedure: MCF10A cells were grown as described^16 and stimulated with EGF (10 ng/ml) or DEX (100 nM). siRNA transfections employed Oligofectamine (Invitrogen) and ON-Target SMART (Dharmacon, Lafayette, Colo.) oligonucleotides. Lapatinib (di-p-Toluenesulfonate Salt) was purchased from LC Laboratories. Anti GR antibody for immunostaining (sc-1004, SANTA CRUZ BIOTECHNOLOGY, INC.)
Cells (5×10^4 cell/insert) were plated in the upper compartment of a 24-well transwell tray (Corning, Acton, MA), and their migration was assayed^16. Cell invasion assays were performed using BioCoat Matrigel Invasion Chambers (BD Bioscience, Franklin Lakes, N.J.). For tracking, cells were seeded (3×10^3 cells/cm^2) on collagen-coated micro-slide (from Ibidi). For collective migration, 8×10^4 cells were seeded in plastic insets (Ibidi), and after overnight incubation, the plastic barriers were removed and time-lapse images were recorded.

MCF10A cells [2] = assay: Single-cell tracking by time-lapse microscopy (migration directionality)
MCF10A cells [3] = assay: Wound closure assay (collective cell migration)
EGF-induced genes = assay: Affymetrix Exon Array time course of EGF- and DEX-regulated transcripts; details: MCF10A, in comparison to EGF
Procedure: (§1) RNA was isolated using the PerfectPure kit from 5 Prime (Hamburg, Germany). Affymetrix GeneChip Human Exon 1.0 ST arrays were used and data were deposited in Gene Expression Omnibus (GSE53405). PCR of pre-mRNA or mRNA used forward primers positioned in the second intron or exon, respectively (Table 3 below).
(§2) All reactions were performed using Power SYBR Green PCR Master Mix (Applied Biosystems, Foster City, CA). For high throughput PCR the Fluidigm® BioMark system was employed. The Affymetrix Expression Console was used for analyses of DNA-arrays, as described^51.
Conceivably, the inhibitory effect of GR involves alterations of EGF-induced transcription. Specifically, GR might affect transcript synthesis or modulate EGF-induced RNA splicing in MCF10A cells. To address such models, cells were stimulated with EGF, DEX or the combination, mRNAs were isolated along a time course from 20 minutes to four hours, and the RNA was hybridized to Affymetrix Exon Arrays which is able to resolve small changes in splicing^19. In addition, confirmatory PCR analyses are provided.

DUSP1 and ERRFI1 = assay: qPCR of negative feedback regulators (pre-mRNA and mRNA); details: serum-starved MCF10A, EGF 10 ng/ml, DEX 100 nM
Procedure: as §1, §2
Analyses of defects in vulva formation in worms and aberrations in eye development in insects, two processes controlled by EGFR, helped define several evolutionary conserved and partly redundant negative feedback loops able to robustly terminate EGFR signalling^21. Since Module A (EGF^UP/DEX^UP) includes several orthologs of the invertebrate negative feedback loops, three of them were selected for further analysis. DUSP1 is the prototype of MAPK-specific phosphatases, which dephosphorylate the shared Thr-Xxx-Tyr motif of MAPKs. ERRFI1/MIG6 (also called RALT) is a previously identified steroid-inducible adaptor, which physically binds and inhibits the kinase domain of EGFR^5. […] By using primers specific for the nascent or the mature transcripts, de novo transcription of these three negative regulators was followed (FIG. 3A). […]

ERK = assay: Immunoblotting of active ERK (pERK)
[4] = tested on: TGFA, NRG1, EREG and HBEGF; assay: Real time PCR and ELISA of EGFR ligands (auto-stimulatory loops); details: MCF10A, pre-mRNA, mRNA and HB-EGF ELISA

Compound: C[C@@H]1C[C@H]2[C@@H]3CCC4=CC(=O)C=C[C@]4(C)[C@@]3(F)[C@@H](O)C[C@]2(C)[C@@]1(O)C(=O)CO [DEX, dexamethasone]
- inhibition of EGF-induced cell migration (MCF10A cells [1]): potent inhibitor
- effect on EGF-enhanced directional persistence (D/T) and velocity (MCF10A cells [2]): abolished these effects
- collective cell migration (MCF10A cells [3]): inhibition of collective cell migration
- delay of migration onset (MCF10A cells [3]): approximately 2 hours
- delay of onset of DEX-regulated transcripts (EGF-induced genes): 40 min
- induction of DUSP1 and ERRFI1 transcripts (DUSP1 and ERRFI1): 20-25 fold
- EGF-stimulated ERK activation (pERK) (ERK; MCF10A, DEX added to EGF): reduced the amplitude and markedly shortened the duration
- EGF-stimulated ERK activation (pERK) in the presence of actinomycin D (ERK; pre-incubated 20 minutes with actinomycin D): unable to reduce ERK activation
- inhibition of auto-stimulatory loops (TGFA, NRG1, EREG, HBEGF) [4]: strongly inhibited

Compound: C[C@]12CC[C@@H]3c4ccc(O)cc4CC[C@H]3[C@@H]1CC[C@@H]2O [E2, estradiol]
- inhibition of EGF-induced cell migration (MCF10A cells [1]): weak or no activity
